Experimental findings from PubChem BioAssay AID1347423 (Functional Genomics Laboratory (NCATS/FGL), 2020) are described below.

Out of some 52,000 sequences screened, about 210 (0.4%) were called active.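 Rule for the calls: active = gene whose silencing raises cell survival under the drug, median off-target-corrected z-score across its silencing RNAs 2 or more; inactive = the rest.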 The list shows a part of the results.

The nature of the test: Resistance to Poly (ADP-Ribose) Polymerase inhibitor: Gene Identification via Genome-wide siRNA Screen. The following applies: mouse BRCA2 R2336H ES cells, olaparib, CellTiter-Glo viability; active compounds read high. Summed up: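 Genome-wide siRNA screen (3 siRNAs/gene, 20 nM) in mouse ES cells carrying hypomorphic BRCA2 R2336H; olaparib 500 nM added 48 h post-transfection, CellTiter-Glo viability 72 h later. Normalized to plate-median negative control; MAD z-scores, gene median, seed-adjusted.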
In general terms: Cellular ATP, detected with luciferase, serves as a proxy for viable cell number.
For the sequence GGAGAGACCUAAAUCUCACTT against Gp9, the z-score was inactive: 0.0694.
The value for GGAUAUUAUCUUCAGACCATT against 9.83E+11 was inactive: -0.375; that for “GGUUCACAGAAAUGGAUGATT against A230056M16” was inactive: -0.423.
For the sequence CCUAAUGUUUACCACAGACTT against Mrps25, the z-score is inactive: -0.28.
“GGAGCUUAGACAAAAAGCCTT against 5830435K17Rik”: the z-score was inactive: -0.51.
The value for “GGAGAUCUUGAGAUUGUAUTT against 5730590G19Rik” was inactive: 1.01; that for GGGAAAAGAGCUGGAUUCUTT against AI415282 was inactive: 1.15; that for GGCCCUUACUUCCACAUCATT against D11Wsu99e was inactive: -0.78.
As for “GGACAAAGCAAUCCACAUCTT against 2410080P20Rik”, the figure is inactive: -1.77; as for CCUCGUUCCUUUGAAAUCATT against Gfi1, inactive: 1.73.
As for GCUUUUCGCCCUGUGCUUATT against DXImx49e, the figure is inactive: -1.03.
For GGCUCUGGGAAUGACGACATT against Zbp1, the z-score was inactive: 0.554.
Regarding GGGUUGAUGUGGUAGAUGATT against Zfp185, the z-score was inactive: -0.81.
As to CGACCUGAGUGAAAAGAAGTT against Stk32c, the z-score is inactive: -1.07.
The value for GCUACGCAUUGAGGAGCUATT against Pkn1 was inactive: -0.213; that for GCCUGUUCGGGAACCUUAUTT against Olfr299 was inactive: -2.69.
With GGUGAGGACCUUCUUCCUUTT against B3galt5, the z-score was inactive: -0.0632.
The value for CGAUAUCCUGAAACUGCCUTT against Tbx3 was inactive: 0.556; that for “CCAAAUGACAGCUAUGGCCTT against 1700012P16Rik” was inactive: 0.812; that for AGACUGUAAAAGUCUUGUCTT against Ftl2 was inactive: -1.03.
“GGAAUGUGAUGAUGUGAUUTT against 2810423O19Rik”: the z-score is inactive: -0.0671.
The value for GGAACUUUGAACUGAAGGGTT against Upb1 was inactive: -0.651.
In the case of GGGUAUCCCGCUUUUCUACTT against Slc6a18, the z-score was inactive: -0.194.
As for GGAAUUCGUAAUCACGCAATT against V1rd2, the figure is inactive: 2.83; as for “CCUGAGUCAGAUUCAUUUATT against B430203M17Rik”, inactive: 0.119; as for “GGAGGAGGGAAUCAGAGAATT against 3830402I07Rik”, inactive: -0.616.
In the case of GGACAAAUUGGUUGUGCUATT against Olfr457, the z-score is inactive: -0.641.
The value for “GGCAACACUGUGGCUAAGUTT against 0710001P18Rik” was inactive: -1.03; that for GGCCAUUCCUUUUCUGGAATT against Aim1 was inactive: 1.2; that for GCCCAACAGCUACACCUUATT against Clra was inactive: -0.466.
As for CCAGAUCAUCGUGCAGAAUTT against E4f1, the figure is inactive: -2.03; as for GCAGGAUCUGCCUAAGUCGTT against Arl7, inactive: -0.799.
Turning to GGUCGGAAGCUGGUCUUUUTT against AW548124, the z-score was inactive: 0.0368.
Regarding CGUAUCCAAAAGUGAUUUCTT against Tigd5, the z-score is inactive: -0.0581.
GCGCAUUCUCCAUUAAACATT against Cyp4f16: the z-score is inactive: -0.285.
As to “CCAAAGAGUUAUCGUUCUATT against 4933401I19Rik”, the z-score was inactive: 0.456.
As for CCUUGGUGGUCUGAAAUAATT against BC013476, the figure is inactive: -0.936.
As for “GGAAUACCACAUGCUUUUGTT against 1110057K04Rik”, the z-score is inactive: -0.0543.
As for GGAGUCUUGUCCAUGUAAUTT against Zfp52, the figure is inactive: -0.357; as for GCAGUCGAGCAUGAAACAATT against Atp5f1, inactive: -0.0174.
The value for GGCCUUGAAGCAGAAGUCUTT against Gfra1 was inactive: 1.3; that for GCUCUACAUGUAGACCUGCTT against Mopt was inactive: 0.744.
The value for CGGUCACAGAGGAAGAAUATT against Ank2 was inactive: 1.45; that for GCAAUCAUGCCCAAGAAAUTT against Ches1 was inactive: 0.863; that for “GGGUUAUGAAGAGAAACUUTT against C430014D17Rik” was inactive: -0.931.
For the sequence “CGAACAGGUAAAUGUGAGCTT against 4921511D23Rik”, the z-score is inactive: -0.185.
On to GGCCUGACCUUCAACAAGATT against Gab2, for which the z-score is inactive: -1.97.
The value for “GCUACUAAACAAGCCGGCATT against 4121402D02Rik” was inactive: -1.64; that for “CCGUGAUCCCUUUUCACCATT against 6030445D17Rik” was inactive: -0.541; that for GGAAGAGCUGGACUUCUUCTT against Hoxb2 was inactive: 0.282.
The value for GGAAUCUAGCUGAGAAAAUTT against Lepr was inactive: -0.29.
The value for GGAAAUCCAGAAGCGUGUGTT against Gtpbp3 was inactive: -1.32.
For the sequence “GGAAAGUCUCCAAGUUUGUTT against 9130017C17Rik”, the z-score was inactive: -0.154.
For GGGAGAGAUGUCAUUGCACTT against Ddx48, the z-score is inactive: -3.44.
With “GGGUAUCAGUACCAAUGUUTT against 9130022A01Rik”, the z-score is inactive: -0.798.
The value for GGUCCUGGAAGAUCCUUCUTT against Slc30a6 was inactive: 0.184.
With GGACUUGGAAGAAGUAUAATT against Rbl2, the z-score is inactive: -0.0509.
As to GGGAUCCAUCCUUAUUGUUTT against Ybx2, the z-score is inactive: 0.681.
GGCUGAAAGAUUGUAUUGATT against ORF5: the z-score was inactive: 0.988.
The value for “GGAGGUUCAACAUGAAAAUTT against B230217C06Rik” was inactive: -0.96; that for GCCCACACUUGCUAAUGAATT against Gm347 was inactive: -1.
As to GGAAAAGUAUUGGUAGACGTT against Tnfaip9, the z-score was inactive: -1.01.
The value for GAGGGCUCUACAGUUUUUATT against Atp5g3 was inactive: -0.536; that for GCUGCUUUCUUUGGAGGACTT against Olfr484 was inactive: -0.487; that for GGUCAGCCAGACCAUUUCUTT against AA517853 was inactive: -0.715.
